In the supplement of paper PMC3334620:
The full ranking holds about 33,000 sequences; the median of “E-score (-0.5 to 0.5)” is about -0.0014, and the highest 2% start at about 0.25. The list shows a part of the results.

molecular target: T1, Cad1 (UniProt P24813); test: PBM E-score (8-mer binding enrichment) (E-score (-0.5 to 0.5)); higher = stronger / more preferred TF binding; settings: protein concentration: 100 nM; construct: GST-full length
T1 sequence: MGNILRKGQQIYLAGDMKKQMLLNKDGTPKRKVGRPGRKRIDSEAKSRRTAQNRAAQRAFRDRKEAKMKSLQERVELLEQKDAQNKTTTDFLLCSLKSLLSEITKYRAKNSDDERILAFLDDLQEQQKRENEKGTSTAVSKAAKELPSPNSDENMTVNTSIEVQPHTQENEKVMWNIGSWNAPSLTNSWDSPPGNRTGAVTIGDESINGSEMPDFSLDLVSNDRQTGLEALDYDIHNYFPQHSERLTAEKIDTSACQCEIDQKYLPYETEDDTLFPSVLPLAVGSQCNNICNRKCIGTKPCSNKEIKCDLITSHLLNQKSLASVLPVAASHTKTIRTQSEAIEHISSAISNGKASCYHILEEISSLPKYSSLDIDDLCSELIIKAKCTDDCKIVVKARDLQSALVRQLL
Procedure, shortened: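 Universal all-10-mer Agilent arrays, double-stranded by primer extension on fresh or once-stripped slides, were probed with about 100-200 nM GST-tagged yeast transcription factors made by PURExpress. Fluorescent anti-GST detected bound protein, and masliner normalised the scans. E-scores from the Universal PBM Analysis Suite were given to each ungapped eight-base word pooled with its reverse complement.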

Sequence	PBM E-score
CGACAGCC	-0.0619
AAGACATC	-0.156
CACGCAGG	0.0223
GTTAATGA	-0.0254
ATATAGAT	0.118
AACCCACG	-0.0654
GTCGTGTA	0.0604
TCACCCCA	-0.12
AATATCCA	0.0727
AGTATGAC	-0.0247
CCGTCAAC	-0.134
AATCCACA	0.0931
AGGTTGGG	-0.0998
CACCCCAG	-0.2
AAAATGTG	0.193
CCGTGATA	-0.0452
GAGTGGAC	-0.0117
GCGATGAC	0.138
CATCGAGA	-0.0411
CAATGGTG	-0.158
ATGGTTCC	0.177
CGACCGAG	-0.0641
GTGGGAGA	-0.172
CAACTTGC	-0.129
AAAATTGC	0.0977

Random excerpt: 7 records from the list
Sequence	PBM E-score
CACGCAGG	0.0223
GCGATGAC	0.138
TCACCCCA	-0.12
AATATCCA	0.0727
AATCCACA	0.0931
AGGTTGGG	-0.0998
AAGACATC	-0.156

Following part.

Sequence	PBM E-score
AGCTCTGG	-0.0343
CGCGCACA	0.257
AAAATGTC	0.203
ACTCCGAC	-0.105
ATGCTAAC	0.0246
CTCAGAAG	-0.145
ACGGGTGG	-0.137
CATAACAA	0.211
CCACCTAA	0.0241
AGACCGCT	-0.0931
GAAATAGC	0.0972
CAACCCGG	-0.18
TGATCAAA	0.148
ATAGTAAA	0.225
AACCGCCA	-0.127
CCAGTCAC	-0.0168
CGTTACCC	-0.3
CTGCGGCA	0.011
ACCCAAGA	0.0411
AGCGAGCC	0.00865
AGAGAGTC	-0.201
GACGTACA	0.00672
GTTTCAGA	-0.00273
CCGTCGGC	-0.18
ACTGACGG	-0.146

Sequence	PBM E-score
ACTCCCTC	-0.201
ACCATTGG	0.0804
GACGCATA	0.0784
CATGAATA	-0.0221
AACGCCTA	-0.0958
ACACACTC	0.209
AGTCCTCG	-0.113
AGGCCTGC	-0.0625
GGAGCGGA	-0.0843
CGGGAACG	-0.0309
ACCCCGAG	-0.149
ATCACACA	0.14
CATCGACA	-0.0756
AAGTGTGG	0.00595
AAGTCGCC	-0.249
GTGGGCAA	-0.145
GCGCTAAC	0.139
CCTGGACC	0.0377
ACCCCACG	-0.251
ATCGGAAC	0.166
CAGGCAAA	0.0957
AAATCCCC	-0.23
ACGTCTAC	-0.0552
CCAGAGCG	-0.0616
AACTTGGC	0.117

Sequence	PBM E-score
CTAACTAA	0.206
AGCCTGAA	-0.0823
ATGCTCGC	0.0221
ATTCTGAG	0.00037
TATTGTCA	0.203
ATTTCACA	0.139
ACATGCCT	-0.104
CATCTTCG	0.184
GTCACTGA	-0.0728
CTTACAAA	0.372
ACCGCCGA	-0.0944
GTCAATTA	0.0509
ACGGTGCG	0.2
ACACGAAA	0.257
TAGTTATA	0.068
GACAATGC	0.166
GAGATCCA	-0.139
CGCGATCC	0.146
AATTCCGA	0.229
AGATCTGG	-0.0847
GGCAACAA	0.0372
AGAGATTC	0.216
AGCAGCGC	0.00251
GGTGAGTA	-0.121
CGCGCCAC	0.00045

Nothing new here: entries from further up.
Sequence	PBM E-score
GCGCTAAC	0.139
CCTGGACC	0.0377
ACCCCACG	-0.251

The list goes on:

Sequence	PBM E-score
AGACCCAA	-0.0921
CCAGCGTC	-0.178
CACTCATC	-0.00019
AGTAGCAA	0.164
CAAAACCC	0.101
AGACCACG	-0.185
GTGGAAAA	-0.033
GTGCGAAA	0.0402
AGGACTTC	-0.103
AAACAAGA	-0.0107
GAGGAAGC	-0.0056
ATGACAGC	0.231
GATGGAGA	-0.0421
CTCAGCTC	-0.0961
CCTCCCTA	-0.222
AATACTAG	0.165
CGACCAAC	0.0088
AAGATCTC	-0.0214
GGGAACAC	0.0161
CTCTACCC	0.0485
ACGGGGCC	-0.108
CTTTAAGC	0.0294
CTCGATCC	0.0631
ACCCATGC	-0.0389
TCATCAGA	0.0421

Sequence	PBM E-score
AGACACCG	-0.0528
TATTTCGA	0.226
AACCAACG	0.0211
GGTGGTAC	-0.175
GGCTGCCA	-0.14
CCCCGTAC	-0.224
AACGGAGC	-0.187
CACACGTC	-0.0941
AAGTCACT	-0.101
ACTCCCGG	-0.0908
CAGATGTC	-0.18
ACCACCGG	-0.176
CAGCAAGC	-0.242
ACTCACTC	0.0557
CACCACTC	0.0728
GTCACGCA	-0.00543
CCATACAG	-0.0244
ACCCCTGG	-0.271
ACTATAGA	-0.00757
AGCGGCAA	0.0335
GAGCCCCA	-0.336
AATTGAAC	-0.0424
CGAGCTTC	0.258
AGCGCGCA	0.355
AATCCCTC	0.165

Sequence	PBM E-score
AGTTCAAG	0.152
GCCTATGA	-0.145
ACCATCTA	-0.212
AAGTTGAA	-0.153
CATTTGCA	0.171
CCATACTC	-0.0714
AGAACCTA	-0.045
ATGTCTCG	-0.0801
AATGCGAA	-0.0481
GTACGTAA	0.0715
AACAGAGT	0.0399
TAAGGCGA	0.0486
ACCTTACT	0.12
GATGGATA	-0.042
CCCAAGAA	0.0477
ATAACTCG	0.00367
GTTATAAC	-0.144
GGTAAACC	-0.104
GCCATAAA	0.125
AATCCAAT	0.167
GAGTACCA	0.0455
AGGTGTAC	-0.0525
